From the supplement of paper PMC8007513 come the findings set out here.

The other results are listed elsewhere or left out. Repeats are few or missing, and single values can be far off.

The subject of the test is Saccharomyces cerevisiae BY4743. Put plainly: growth (OD600) relative to untreated control; higher = less growth inhibition. As to conditions: compound concentration: 133 uM; 20 h. Here is the method: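 NMCCC compounds (133 uM, no IPBC) tested alone against Saccharomyces cerevisiae BY4743 in YPD, 96-well plates, starting OD600 ~0.1. Growth was read as OD600 at 20 h and expressed as % of the untreated control. Single pass.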
For the compound `O=C(CCc1ccc(S(=O)(=O)N2CCCCCC2)cc1)OCC(=O)N1CCNC1=O`, the growth worked out at 117%.

`CCCNC(=O)CN(C)C(=O)c1ccc(-c2cc(Cl)ccc2Cl)o1` displayed a growth of 100%.

`CC(C)CC(NS(=O)(=O)c1ccc2c(c1)CCCC(=O)N2)C(=O)N1CCOCC1` (stereo not drawn) displayed a growth of 95.7%. In turn, `CCCOc1ccc(C(F)(F)F)cc1NS(=O)(=O)c1ccc(CNC(C)=O)s1` yielded a growth of 95.5%. In the case of `Cn1cccc1C(=O)NC(=O)COc1ccccc1C#N`, the growth stood at 98.3%. The value for `CC1CCN(c2ccc(NC(=O)CSc3nc(C(C)C)n[nH]3)cc2)CC1` was 108%.

As to `COc1cc(OC)c(NC(=O)NC(C(=O)N2CCc3ccccc32)C(C)C)cc1Cl` (stereo not drawn), the growth amounted to 104%.

The compound `CC/1=C/C(=O)N(/C(=C1C(=O)OCC(=O)NC2(CCCC2)C#N)C)C3=CC=CC=C3` displayed a growth of 97.9%. With `O=C(CCSc1nc(-c2ccco2)cc(C(F)(F)F)n1)NCCN1CCOCC1` the figure was 90.3%; with `CC(Oc1ccc(Cl)cc1C(N)=O)C(=O)Nc1ccc(C#N)cc1` (stereo not drawn), 108%.

Consider `Cc1noc(C(=O)N2CCC(Cc3ccccc3)CC2)c1Cl`, for which the growth worked out at 92.8%. The value for `CCc1cccc(C)c1NC(=O)Cn1c(C(=O)OC)cc2sccc21` was 83.3%; that for `COc1cccc(CNCc2cccn2-c2sc(C)c(C)c2C(=O)O)c1` was 99%. The value for `CCc1cc2c(Nc3cccc(O)c3)nc(C)nc2s1` was 98.6%; that for `O=C(CSc1nc2ccc[nH]c-2n1)Nc1nccs1` was 101%; that for `CCOC(=O)N1CCN(C(=O)CNS(=O)(=O)c2ccc(Cl)c(C(F)(F)F)c2)CC1` was 72.7%.

`CCCNC(=O)Cc1c(C)nc2cc(-c3ccccc3)nn2c1C` displayed a growth of 102%. `Cc1ccccc1OCCN1C(=O)C(=O)c2cccc(C)c21`: the growth amounted to 109%. With `CCC(C)NC(=O)c1cccc(-n2cnc3cccnc32)c1` (stereo not drawn) the figure was 83.1%; with `CCOC(=O)c1cn(CC(=O)Nc2cc(C)cc(C)c2)nn1`, 106%; with `COC1(C(=O)C(=O)Nc2ccccc2Cl)NC(C)(C)Cc2ccccc21` (stereo not drawn), 64.9%. With `Cc1nn(-c2ccccc2)c(C)c1NC(=O)Cn1cnnn1` the figure was 102%. The value for `Cc1ccc(-c2n[nH]c(SCC(=O)NC3(C#N)CCCC3)n2)cc1` was 103%. On to `COC(=O)COC1=CC=C2C(=O)\C(=C/OC2=C1)OC3=CC=C(C=C3)C(C)(C)C`, for which the growth was 111%. Regarding `Cc1cccc(Nc2nnc(SCC(=O)c3ccc[nH]3)s2)c1`, the growth was 92.3%. Take `COCc1nc2ccccc2n1CC(O)COc1ccccc1` (stereo not drawn): the growth stood at 110%. With `COC(=O)C1=CC=C(CN(C)C(=O)\C2=N\N(C(=O)CC2)C3=CC(=CC=C3C)C)C=C1` the figure was 104%; with `NCCc1c(-c2ccccc2)nn(-c2ccccc2)c1O`, 111%; with `CCOC(=O)c1sc(NC(=O)c2nc3nccc(C)n3n2)nc1C`, 96.7%. Turning to `CNC(=O)NC(=O)CSc1nnc(Nc2ccc(Oc3ccccc3)cc2)s1`, the growth is 100%. The compound `Cc1nc(NC(=O)CSc2nncn2C2CC2)sc1C` returned a growth of 102%.

In turn, `Cc1cccc(-n2ccnc2SCC(=O)Nc2ccccc2S(=O)(=O)C(F)F)c1` gave a growth of 101%. In turn, `O=C(CN1CCN(c2csc(Cl)n2)CC1)Nc1ccc(Cl)c(C(F)(F)F)c1` returned a growth of 103%. `Cc1cc(C)cc(OCC(=O)OC(C)C(=O)Nc2ccccc2C#N)c1` (stereo not drawn): the growth was 99.3%.

On to `Cc1csc(SCC(=O)NC(C)C(c2ccccc2)N2CCOCC2)n1` (stereo not drawn), for which the growth was 90.5%. With `COC1=CC=C(CCNC(=O)\C2=C\C3=C(CS2)C(=C(C)S3)C)C=C1OC` the figure was 98.2%; with `Cc1nc(Nc2ccc(F)cc2Cl)c2cc(C)sc2n1`, 97.9%. With `CCCOc1ccc(C(F)(F)F)cc1NC(=O)C1CSC2(C)CCC(=O)N12` (stereo not drawn) the figure was 104%.
